# Assay results: PubChem BioAssay AID504444 (National Center for Advancing Translational Sciences (NCATS), 2011)
# Screen size: about 360,000 compounds; about 7,500 (2.1%) were called active. This list was built around the results that the source calls inconclusive (neither active nor inactive); the mix of calls is not that of the screen. The call rests on the fitted dose curve; in most records, active means well fitted inhibition curve with a large enough effect; inconclusive means small, poorly fitted or top-dose-only effect, or effect the other way; inactive means flat fitted curve, though single readings scatter. Potencies beside an inconclusive call are fits to weak or partial responses and may not hold up.
# Assay: Nrf2 qHTS screen for inhibitors; further: nearly all actives have a fitted effect of over 60% in size
# Details: A549 ARE-Fluc reporter, luciferase luminescence, 18-24 h; series mostly up to 46 µM
# Method in brief: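 Quantitative HTS in A549 cells stably bearing an antioxidant response element-firefly luciferase construct. Inhibition of Nrf2-driven transcription was scored by luminescence after 18-24 h of compound exposure at 37 °C.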
# Potency means the concentration at half of the fitted maximal effect.
row,SMILES,Potency
1,C/C(=N\O)c1sc(-c2ccccc2)nc1C,"inconclusive: 6.51 µM [activator, full curve]"
2,Cc1ccc(Cl)cc1NC(=O)Cn1ncc2c(C)n(Cc3ccccc3F)c(C)c2c1=O,"inconclusive: 29.1 µM [falling, single point]"
3,COc1cc(/C=C(/NC(=O)c2ccccc2)C(=O)Nc2cccc(O)c2)c([N+](=O)[O-])cc1OC,"inconclusive: 32.6 µM [activator, single point]"
4,CCOC(=O)[C@H]1[C@H]2COc3ccccc3[C@@H]2N2C(=O)CNC(=O)[C@@]12C,inactive
5,N/C(=N\OC(=O)C1CCCCC1)c1ccncc1,"inconclusive: 18.4 µM [activator, single point]"
6,Cc1[nH]nc2c1C(c1cccc(O)c1)C1=C(CC(C)(C)CC1=O)N2 (stereo not given),inactive
7,O=C(/C=C/c1ccc(-c2cccc([N+](=O)[O-])c2)o1)N1CCOCC1,"inconclusive: 2.31 µM [falling, partial curve, poor fit]"
8,COc1ccc(C2=NOC(CN3C(=O)c4ccccc4S3(=O)=O)C2)cc1 (stereo not given),"inconclusive: 7.31 µM [activator, partial curve]"
9,COc1ccc(N2C(=O)N(Cc3ccc(C)cc3)c3ccccc3S2(=O)=O)cc1,"inconclusive: 6.51 µM [falling, partial curve, poor fit]"
10,Cc1nc2ccc(S(=O)(=O)Nc3cc(-c4nc5cccnc5s4)ccc3C)cc2s1,inactive
11,COc1ccc2cc(Br)ccc2c1CC(=O)NC(C)(C)C,"inconclusive: 20.6 µM [falling, single point]"
12,COc1ccc(C2C(C#N)=C(N)Oc3c2ccc2cccnc32)cc1OC (stereo not given),inactive
13,CSc1ccc(S(=O)(=O)Nc2ccc3c(c2)NC(=O)CC3)cc1,"inconclusive: 20.6 µM [falling, partial curve, poor fit]"
14,Cc1cccc(C)c1NC(=S)NC(=O)CCc1ccccc1,"inconclusive: 23.1 µM [falling, single point]"
15,COc1ccccc1C(=O)NCCC(=O)Nc1ccc(S(=O)(=O)N2CCCC(C)C2)cc1 (stereo not given),"inconclusive: 14.6 µM [falling, partial curve, poor fit]"
16,Cc1ccc(NC(=O)C2CC(=O)N(c3ccc4c(c3)OCCO4)C2)cc1S(=O)(=O)N(C)C (stereo not given),"inconclusive: 11.6 µM [falling, partial curve]"
17,CNc1snc(C)c1C(=O)OCC(=O)N(C)Cc1ccccc1,"inconclusive: 16.4 µM [falling, partial curve]"
18,Cc1cc(C(=O)Nc2ccc3c(c2)OCCO3)co1,"inconclusive: 16.4 µM [activator, partial curve]"
19,COc1cc(/C=C/[N+](=O)[O-])ccc1OCc1cccc(C(=O)O)c1,"inconclusive: 14.6 µM [activator, partial curve, poor fit]"
20,CCOC(=O)CS(=O)(=O)c1nc(-c2ccc(F)cc2)cc(C(F)(F)F)n1,active: 16.4 µM
21,COc1ccc(-c2nc(C#N)c(N3CCOCC3)o2)cc1OC,inactive
22,O=C(Nc1ccc(F)cc1F)N1CCN(c2ccc(Cl)c(Cl)c2)CC1,"inconclusive: 18.4 µM [falling, single point]"

row,SMILES,Potency
1,COc1ccc(CN2CCN(C(=O)CCC(=O)Nc3nnc(C4CCCCC4)s3)CC2)cc1F,"inconclusive: 1.64 µM [falling, partial curve, poor fit]"
2,CCOc1ccc(S(=O)(=O)NCc2ccncc2)cc1NC(=O)c1ccccc1F,active: 2.59 µM
3,CCCCCc1nn2cc(-c3ccccc3)nc2s1,"inconclusive: 0.259 µM [activator, full curve]"
4,CC(=O)Nc1ccccc1OCC(=O)N(Cc1ccccc1)C(C)C,"inconclusive: 11.6 µM [falling, partial curve, poor fit]"
5,CC12CCC(=O)C=C1CCC1C2CCC2(C)C1CCC2(O)C(=O)CO (stereo not given),"inconclusive: 6.51 µM [falling, partial curve]"
6,N#CCC(CNc1ncc(C(F)(F)F)cc1Cl)OC(=O)c1ccc(Cl)cc1Cl (stereo not given),"inconclusive: 29.1 µM [falling, single point]"
7,Cn1c(CN2CCCCC2)nc2cc(NC(=O)c3ccccc3)ccc21,inactive
8,O=C(Nc1ccc(Cl)c(Cl)c1)c1ccc(Cn2c(=O)[nH]c3ccsc3c2=O)cc1,"inconclusive: 20.6 µM [falling, partial curve, poor fit]"
9,CC(=O)OC1CCC2(C)C(=CCC3C4CC(=O)N(O)C(=O)C4(C)CCC32)C1 (stereo not given),"inconclusive: 29.1 µM [activator, single point]"
10,O=C(c1cccc(Oc2ccccc2)c1)N1CCN(c2ccccn2)CC1,"inconclusive: 29.1 µM [falling, single point]"
11,COc1ccc(/C=C2\SC(=S)N(CCCC(=O)NNC(=O)c3ccccc3O)C2=O)cc1,active: 13 µM
12,CCOC(=O)C1(CCCc2ccccc2)CCN(Cc2cnc(C)s2)CC1,"inconclusive: 32.6 µM [falling, single point]"
13,CN(Cc1cccc2cnccc12)C(=O)c1cc(COc2ccc(F)cc2F)on1,"inconclusive: 2.06 µM [falling, partial curve, poor fit]"
14,Cc1cc(C(=O)COC(=O)c2ccncc2)c(C)n1Cc1ccco1,"inconclusive: 29.1 µM [activator, single point]"
15,CCC(C)n1c(SCC(=O)NC(=O)Nc2ccc3c(c2)OCCO3)nc2ccccc2c1=O (stereo not given),"inconclusive: 23.1 µM [falling, partial curve]"
16,C1=C(CCNc2ncnc3c2[nH]c2ccccc23)CCCC1,active: 5.17 µM
17,N/C(=N/O)c1nc(N2CCCC2)nc(N(c2ccccc2)c2ccccc2)n1,"inconclusive: 29.1 µM [falling, single point]"
18,CCOC(=O)c1sc(NC(=S)NC(=O)C2CC2)cc1C,"inconclusive: 1.64 µM [activator, partial curve]"
19,CCCNC(=O)c1c(N)n(-c2cc(OC)cc(OC)c2)c2nc3ccccc3nc12,"inconclusive: 20.6 µM [falling, single point]"
20,O=C(Nc1ccccc1)c1cc2ccccc2s1,"inconclusive: 1.46 µM [activator, full curve]"
21,CC1(C)Cc2c(sc3ncnc(NNC(=S)NCc4ccccc4)c23)CO1,"inconclusive: 7.31 µM [falling, partial curve, poor fit]"
22,O=c1[nH]c(C2CCN(S(=O)(=O)c3cccc(C(F)(F)F)c3)CC2)nc2c1nnn2Cc1cccc(F)c1,"inconclusive: 18.4 µM [falling, single point]"

row,SMILES,Potency
1,CC(=O)N/N=C\c1cccc(OC/C=C/c2ccccc2)c1,"inconclusive: 2.06 µM [activator, full curve]"
2,NC(=NCCc1c[nH]c2ccccc12)NS(=O)(=O)c1ccc2ccccc2c1,active: 16.4 µM
3,CCOc1ccccc1NC(=O)c1nn(C)c2c1CSc1ccccc1-2,active: 18.4 µM
4,CNC(=O)Nc1ccc(C2SCCS2)cc1,"inconclusive: 25.9 µM [activator, single point]"
5,CCOc1ccc(-c2csc(-c3c(N)c(C(=O)c4ccc5c(c4)OCO5)n4ccccc34)n2)cc1,"inconclusive: 2.31 µM [activator, full curve, poor fit]"
6,CCCC(=O)N=c1sc2cccc(F)c2n1C,"inconclusive: 18.4 µM [activator, single point]"
7,COc1cc(Cl)c(C)cc1NC(=O)COc1ccc(C)nc1[N+](=O)[O-],"inconclusive: 7.31 µM [activator, partial curve]"
8,COc1ccccc1C(=O)NNC(=S)NC(=O)c1sc2ccccc2c1Cl,"inconclusive: 14.6 µM [falling, partial curve]"
9,Brc1ccc(-c2nnc(-c3ccccc3)c(N3CCSCC3)n2)cc1,"inconclusive: 5.8 µM [activator, full curve, poor fit]"
10,Cc1ccc(NC(=O)c2ccc(S(=O)(=O)N3CCCCCC3)cc2)nc1,"inconclusive: 18.4 µM [falling, partial curve, poor fit]"
11,CN(C)CCNC(=O)c1ccc(Cn2c(=O)c3cccn3c3cccnc32)cc1,"inconclusive: 1.3 µM [activator, full curve, poor fit]"
12,Cc1ccc(CC(=O)NC2CCSC2=O)cc1 (stereo not given),inactive
13,COc1ccc(-c2c([C@H]3[C@H]4C=CC[C@@H](C)[C@@H]4C(=O)N3Cc3ccccc3)ccc3ccccc23)cc1OC,active: 18.4 µM
14,COc1ccc([N+](=O)[O-])c(S(=O)(=O)c2ccccc2)n1,"inconclusive: 16.4 µM [falling, partial curve]"
15,CCc1ccccc1OCC(=O)OCC(=O)Nc1cc(C)on1,inactive
16,COc1ccc(C(=O)OCC(=O)c2ccc(C3CCCCC3)cc2)cc1,"inconclusive: 14.1 µM [falling, partial curve, poor fit]"
17,CCN(CC)CCOC(=O)c1ccc(N/C=C(/C#N)c2nc(-c3ccc(OC)c(OC)c3)cs2)cc1,"inconclusive: 29.1 µM [falling, single point]"
18,O=C(Nc1ccccc1)O/N=C/c1ccc(F)cc1,"inconclusive: 2.59 µM [activator, partial curve]"
19,COc1ccc(-n2nnc3c(=O)n(Cc4cccc(C)c4)cnc32)cc1,"inconclusive: 29.1 µM [falling, single point]"
20,COc1ccc(C(=O)Nc2nc(CC(=O)NCCc3cccc(OC)c3)cs2)cc1,"inconclusive: 6.51 µM [activator, single point]"
21,Cc1ccccc1NS(=O)(=O)c1ccc2c3c(cccc13)C(=O)N2C,"inconclusive: 29.1 µM [falling, single point]"

# Individual results from the results shown.
# NC(=NCCc1c[nH]c2ccccc12)NS(=O)(=O)c1ccc2ccccc2c1 | Potency: active: 16.4 µM
# CCN(CC)CCOC(=O)c1ccc(N/C=C(/C#N)c2nc(-c3ccc(OC)c(OC)c3)cs2)cc1 | Potency: inconclusive: 29.1 µM [falling, single point]
# COc1ccccc1C(=O)NNC(=S)NC(=O)c1sc2ccccc2c1Cl | Potency: inconclusive: 14.6 µM [falling, partial curve]

# At a glance, part of the list above:
row,SMILES,Potency
13,COc1ccc(-c2c([C@H]3[C@H]4C=CC[C@@H](C)[C@@H]4C(=O)N3Cc3ccccc3)ccc3ccccc23)cc1OC,active: 18.4 µM
14,COc1ccc([N+](=O)[O-])c(S(=O)(=O)c2ccccc2)n1,"inconclusive: 16.4 µM [falling, partial curve]"
